# Reference: PubChem BioAssay AID504444 (National Center for Advancing Translational Sciences (NCATS), 2011)
# About 7,500 (2.1%) of roughly 360,000 compounds were called active. Inconclusive results, whose numbers are uncertain, are shown with a selection of clear calls. Calls come from the whole dose curve; as a rule, active = well fitted inhibition curve with a large enough effect; inconclusive = small, poorly fitted or top-dose-only effect, or effect the other way; inactive = flat fitted curve, though single readings scatter. Potencies of inconclusive entries are doubtful fits and often do not repeat.
# Assay: Nrf2 qHTS screen for inhibitors; note: nearly all actives have a fitted effect of over 60% in size
# Conditions: A549 ARE-Fluc reporter, luciferase luminescence, 18-24 h; series mostly up to 46 µM
# In short: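 In this cell-based qHTS, ARE-driven firefly luciferase in A549 cells reports Nrf2 activity; the luminescent signal after BugLite lysis is the measured value, with a prior CellTiter-Fluor read for cell health.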
# Potency is the fitted concentration of half-maximal effect.
row,SMILES,Potency
1,CCCc1ccc2oc(C(=O)NCCc3cnn(C)c3)c(C)c2c1,"inconclusive: 5.8 µM [activator, full curve]"
2,CCN(CC)S(=O)(=O)c1ccc(-c2ccc(S(=O)(=O)N(CC)CC)cc2)cc1,"inconclusive: 25.9 µM [falling, single point]"
3,CCOC(=O)C1=C(CNCCOc2ccc(OC)cc2)NC(=O)NC1c1ccc2c(c1)OCO2 (stereo not drawn),"inconclusive: 0.0461 µM [falling, full curve, poor fit]"
4,COc1ccc(C2=Nn3c(nnc3-c3cccc(OC)c3OC)SC2)cc1OC,"inconclusive: 11.6 µM [falling, partial curve]"
5,O=C(/C=C/c1ccccc1Br)c1ccc2c(c1)OCO2,"inconclusive: 18.4 µM [activator, partial curve, poor fit]"
6,CC[n+]1ccc(/C=C/c2c[nH]c3ccccc23)cc1,active: 1.3 µM
7,CCc1ccc(NS(=O)(=O)c2c(C)nc3sc(CC)nn3c2=O)cc1,"inconclusive: 18.4 µM [falling, partial curve, poor fit]"
8,CC(C)Cc1cc(C(=O)Nc2sc3c(c2C#N)CCC3)no1,"inconclusive: 20.6 µM [falling, partial curve, poor fit]"
9,COc1ccc(CCNC(=O)CSCc2c(F)cccc2Cl)cc1OC,"inconclusive: 18.4 µM [falling, single point]"
10,CC1CC(C)CN(S(=O)(=O)c2ccc(C(=O)NCc3ccc4c(c3)OCO4)cc2)C1 (stereo not drawn),active: 10.3 µM
11,Cc1ccc(C)c(CN2C(=O)C3(c4ccccc42)N(c2ccc(Cl)cc2)C(=O)CS3(=O)=O)c1 (stereo not drawn),inactive
12,O=C(C1CCCCC1)N1CCCC(c2nc3c(nnn3Cc3ccccc3)c(=O)[nH]2)C1 (stereo not drawn),"inconclusive: 32.6 µM [falling, single point]"
13,Cc1cccc(N2CCN(C(=O)Cc3ccc(-n4c(=O)[nH]c5ccsc5c4=O)cc3)CC2)c1C,"inconclusive: 20.6 µM [falling, partial curve]"
14,O=C(COc1ccc(Br)cc1CO)N1CCCc2ccccc21,inactive
15,COC(=O)[C@]1(C)N[C@H](CN(C)S(=O)(=O)c2ccccc2)[C@@H]2C(=O)N(C)C(=O)[C@@H]21,inactive
16,CC(=O)c1ccc(NC(=O)c2nc(-c3ccc(C)cc3)n3c2CCCCC3)cc1,"inconclusive: 7.31 µM [activator, partial curve]"
17,COc1ccc(CNc2nc3ccccc3c3nc(-c4ccccc4)nn23)cc1,inactive
18,O=C(NC(Cc1c[nH]c2ccccc12)C(=O)N/N=C/c1ccc(Cl)cc1)c1cccs1 (stereo not drawn),"inconclusive: 29.1 µM [falling, single point]"
19,COC(=O)c1ccccc1NC(=O)CN(C)Cc1ccccc1,"inconclusive: 20.6 µM [activator, single point]"
20,COc1ccc(C(=O)NC2CCCc3c2cnn3-c2cccc(C)c2C)c(OC)n1 (stereo not drawn),"inconclusive: 29.1 µM [falling, single point]"
21,Cc1cccc(N(CC(O)CN2CCCC2)S(=O)(=O)c2ccccc2)c1 (stereo not drawn),inactive
22,O=C(O)c1ccc(NC(=S)N2CCCCC2)cc1,"inconclusive: 2.59 µM [activator, partial curve, poor fit]"

row,SMILES,Potency
1,Cc1ccccc1C(=O)N1CCN(c2ccc(NC(=O)c3ccc4c(c3)OCCO4)cc2)CC1,active: 20.6 µM
2,O=C(NCCC1CCCCN1S(=O)(=O)c1ccc(Cl)cc1)C(=O)NCCN1CCOCC1 (stereo not drawn),"inconclusive: 9.2 µM [activator, partial curve, poor fit]"
3,CCN1C(=O)Nc2cccc3cccc1c23,active: 8.2 µM
4,CCc1ccccc1NC(=O)c1ccc(CN2C(=O)CCn3nc(C)cc32)cc1,inactive
5,Cc1ccccc1NC(=O)CSc1cn(CC(=O)N(C(C)C)C(C)C)c2ccccc12,inactive
6,CC1CCN(c2ccccc2NC(=S)NC(=O)C(C)(C)C)CC1,inactive
7,Cc1ccc(N2CCN(S(=O)(=O)c3ccc(Cl)s3)CC2C)cc1 (stereo not drawn),active: 13 µM
8,CC(C)c1ccc(NC2=NCC(=O)N2Cc2cccs2)cc1,"inconclusive: 29.1 µM [falling, single point]"
9,COc1ccc(/C=C(/CC(=O)Nc2ccc(C)cc2)c2nc3ccccc3s2)cc1,"inconclusive: 10.3 µM [activator, partial curve, poor fit]"
10,CC(C)[C@H](NC(=O)N1CCC(Cc2ccccc2)CC1)C(=O)O,"inconclusive: 13 µM [falling, partial curve, poor fit]"
11,Fc1ccc(NC(=S)NC2CCCCC2)c(F)c1F,"inconclusive: 10.3 µM [falling, partial curve, poor fit]"
12,COc1ccccc1NC(=S)N(Cc1ccco1)Cc1cc2cc(C)cc(C)c2[nH]c1=O,"inconclusive: 11.6 µM [falling, partial curve, poor fit]"
13,CC(=O)Nc1ccc(CN2CCc3c([nH]c4ccccc34)C2c2ccccn2)cc1 (stereo not drawn),"inconclusive: 14.6 µM [activator, partial curve, poor fit]"
14,CCCCc1nc2sc3c(=O)[nH]c(=S)[nH]c3c2c2c1CCC2,inactive
15,Cc1cc(=O)[nH]c(N/N=C/c2cc(C)n(CC(F)(F)F)c2C)n1,active: 4.11 µM
16,Cc1ccc(NC(=O)COc2coc(CN3CCc4ccccc43)cc2=O)c(C)c1,"inconclusive: 7.31 µM [falling, partial curve, poor fit]"
17,CCOC(=O)c1c(-c2ccccc2)csc1NC(=O)c1nn(CC)cc1Br,"inconclusive: 23.1 µM [falling, single point]"
18,Cn1ccnc1SCC(=O)NC1CCCCC1,"inconclusive: 2.91 µM [activator, partial curve, poor fit]"
19,CC(=O)OCC(=O)[C@@]1(O)CC[C@H]2[C@@H]3CCC4=CC(=O)CC[C@]4(C)[C@H]3C(=O)C[C@@]21C,inactive
20,CC(=O)N1c2ccccc2CC1C(=O)NCc1cccc(Cl)c1 (stereo not drawn),"inconclusive: 16.4 µM [activator, partial curve]"
21,Cc1ccc(C(=O)Nc2ccc(C(=O)N/N=C/c3c[nH]c4ccccc34)cc2)cc1,"inconclusive: 2.06 µM [activator, partial curve, poor fit]"

# Another view of part of the listing above.
row	SMILES	Potency
6	CC1CCN(c2ccccc2NC(=S)NC(=O)C(C)(C)C)CC1	inactive
20	CC(=O)N1c2ccccc2CC1C(=O)NCc1cccc(Cl)c1 (stereo not drawn)	inconclusive: 16.4 µM [activator, partial curve]
